Laboratory results: publication PMC8384837
Changes are numbered by the printed parent chain. Some of the results follow. At the low end of the ranking, values are background and their order means little.

Experiments:
Settings in all cases: yeast three-hybrid, YBZ-1, SC-Leu-His + 0.5 mM 3-AT, 4 days
[1] = biological target: T1, PUM1 PUF domain R6-LWK N1043L + Y1044W + Q1047K (UniProt Q14671)
T1 sequence: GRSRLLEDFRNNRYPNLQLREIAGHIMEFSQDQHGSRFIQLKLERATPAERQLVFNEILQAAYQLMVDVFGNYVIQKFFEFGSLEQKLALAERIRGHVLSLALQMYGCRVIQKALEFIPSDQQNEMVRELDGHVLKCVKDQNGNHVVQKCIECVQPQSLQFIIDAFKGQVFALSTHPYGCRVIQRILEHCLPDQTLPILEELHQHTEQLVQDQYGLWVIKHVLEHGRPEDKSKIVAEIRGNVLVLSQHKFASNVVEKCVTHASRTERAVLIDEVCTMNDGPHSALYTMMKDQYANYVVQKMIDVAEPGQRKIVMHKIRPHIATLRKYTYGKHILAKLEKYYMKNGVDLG

[2] = biological target: T2, PUM1 PUF domain R6-LWL N1043L + Y1044W + Q1047L (UniProt Q14671)
T2 sequence: T1 sequence with K220L

[3] = biological target: T3, PUM1 PUF domain R6-LWS N1043L + Y1044W + Q1047S (UniProt Q14671)
T3 sequence: T1 sequence with K220S

[4] = biological target: T4, PUM1 PUF domain R6-LWV N1043L + Y1044W + Q1047V (UniProt Q14671)
T4 sequence: T1 sequence with K220V

[5] = biological target: T5, PUM1 PUF domain R6-LYA N1043L + Q1047A (UniProt Q14671)
T5 sequence: T1 sequence with W217Y, K220A

[6] = biological target: T6, PUM1 PUF domain R6-LYG N1043L + Q1047G (UniProt Q14671)
T6 sequence: T1 sequence with W217Y, K220G

[7] = biological target: T7, PUM1 PUF domain R6-LYV N1043L + Q1047V (UniProt Q14671)
T7 sequence: T1 sequence with W217Y, K220V

[8] = biological target: T8, PUM1 PUF domain R6-MHR N1043M + Y1044H + Q1047R (UniProt Q14671)
T8 sequence: T1 sequence with L216M, W217H, K220R

[9] = biological target: T9, PUM1 PUF domain R6-MWG N1043M + Y1044W + Q1047G (UniProt Q14671)
T9 sequence: T1 sequence with L216M, K220G

[10] = biological target: T10, PUM1 PUF domain R6-MYR N1043M + Q1047R (UniProt Q14671)
T10 sequence: T1 sequence with L216M, W217Y, K220R

[11] = biological target: T11, PUM1 PUF domain R6-NFL Y1044F + Q1047L (UniProt Q14671)
T11 sequence: T1 sequence with L216N, W217F, K220L

[12] = biological target: T12, PUM1 PUF domain R6-NRI Y1044R + Q1047I (UniProt Q14671)
T12 sequence: T1 sequence with L216N, W217R, K220I

[13] = biological target: T13, PUM1 PUF domain R6-NRR Y1044R + Q1047R (UniProt Q14671)
T13 sequence: T1 sequence with L216N, W217R, K220R

[14] = biological target: T14, PUM1 PUF domain R6-NRS Y1044R + Q1047S (UniProt Q14671)
T14 sequence: T1 sequence with L216N, W217R, K220S

[15] = biological target: T15, PUM1 PUF domain R6-QHR N1043Q + Y1044H + Q1047R (UniProt Q14671)
T15 sequence: T1 sequence with L216Q, W217H, K220R

[16] = biological target: T16, PUM1 PUF domain R6-QRR N1043Q + Y1044R + Q1047R (UniProt Q14671)
T16 sequence: T1 sequence with L216Q, W217R, K220R

[17] = biological target: T17, PUM1 PUF domain R6-RFA N1043R + Y1044F + Q1047A (UniProt Q14671)
T17 sequence: T1 sequence with L216R, W217F, K220A

[18] = biological target: T18, PUM1 PUF domain R6-RFG N1043R + Y1044F + Q1047G (UniProt Q14671)
T18 sequence: T1 sequence with L216R, W217F, K220G

[19] = biological target: T19, PUM1 PUF domain R6-RFS N1043R + Y1044F + Q1047S (UniProt Q14671)
T19 sequence: T1 sequence with L216R, W217F, K220S

[20] = biological target: T20, PUM1 PUF domain R6-RHG N1043R + Y1044H + Q1047G (UniProt Q14671)
T20 sequence: T1 sequence with L216R, W217H, K220G

Sequence: GGCUAGAACUAGUGGAUCCCCCGGCGCCCGGCGGCUCGAGCCCGGGUAAGUGGAAAUAGUCUGCAUGCCGCCGGGCGCCAUGCCUGCAGGUCGACUCUAGAAAACAUG
- binding signal (log2 enrichment (interaction score)) [1]: < -7.21
- binding signal (log2 enrichment (interaction score)) [2]: < -8.87
- binding signal (log2 enrichment (interaction score)) [3]: < -8.52
- binding signal (log2 enrichment (interaction score)) [4]: < -8.25
- binding signal (log2 enrichment (interaction score)) [5]: < -7.86
- binding signal (log2 enrichment (interaction score)) [6]: < -7.01
- binding signal (log2 enrichment (interaction score)) [7]: < -7.21
- binding signal (log2 enrichment (interaction score)) [8]: < -7.33
- binding signal (log2 enrichment (interaction score)) [9]: < -8.28
- binding signal (log2 enrichment (interaction score)) [10]: < -6.77
- binding signal (log2 enrichment (interaction score)) [11]: < -8.03
- binding signal (log2 enrichment (interaction score)) [12]: < -6.86
- binding signal (log2 enrichment (interaction score)) [13]: < -8.01
- binding signal (log2 enrichment (interaction score)) [14]: < -7.7
- binding signal (log2 enrichment (interaction score)) [15]: < -8.99
- binding signal (log2 enrichment (interaction score)) [16]: < -9.43
- binding signal (log2 enrichment (interaction score)) [17]: < -7.39
- binding signal (log2 enrichment (interaction score)) [18]: < -7.97
- binding signal (log2 enrichment (interaction score)) [19]: < -7.19
- binding signal (log2 enrichment (interaction score)) [20]: < -9.25
